Test results: PubChem BioAssay AID540275 (National Center for Advancing Translational Sciences (NCATS), 2011)
In all, about 320,000 compounds went through this assay and about 620 (0.19%) were called active. This list was built around the results that the source calls inconclusive (neither active nor inactive); the mix of calls is not that of the screen. No stated cut-off is given here; in the data, active means activation above about 80%; inconclusive means between about 30% and that limit; inactive means weaker than that.

Sequences of proteins named here, by UniProt entry; tags and fusion partners are left off.
UniProt Q8NER1, whole entry, looked up: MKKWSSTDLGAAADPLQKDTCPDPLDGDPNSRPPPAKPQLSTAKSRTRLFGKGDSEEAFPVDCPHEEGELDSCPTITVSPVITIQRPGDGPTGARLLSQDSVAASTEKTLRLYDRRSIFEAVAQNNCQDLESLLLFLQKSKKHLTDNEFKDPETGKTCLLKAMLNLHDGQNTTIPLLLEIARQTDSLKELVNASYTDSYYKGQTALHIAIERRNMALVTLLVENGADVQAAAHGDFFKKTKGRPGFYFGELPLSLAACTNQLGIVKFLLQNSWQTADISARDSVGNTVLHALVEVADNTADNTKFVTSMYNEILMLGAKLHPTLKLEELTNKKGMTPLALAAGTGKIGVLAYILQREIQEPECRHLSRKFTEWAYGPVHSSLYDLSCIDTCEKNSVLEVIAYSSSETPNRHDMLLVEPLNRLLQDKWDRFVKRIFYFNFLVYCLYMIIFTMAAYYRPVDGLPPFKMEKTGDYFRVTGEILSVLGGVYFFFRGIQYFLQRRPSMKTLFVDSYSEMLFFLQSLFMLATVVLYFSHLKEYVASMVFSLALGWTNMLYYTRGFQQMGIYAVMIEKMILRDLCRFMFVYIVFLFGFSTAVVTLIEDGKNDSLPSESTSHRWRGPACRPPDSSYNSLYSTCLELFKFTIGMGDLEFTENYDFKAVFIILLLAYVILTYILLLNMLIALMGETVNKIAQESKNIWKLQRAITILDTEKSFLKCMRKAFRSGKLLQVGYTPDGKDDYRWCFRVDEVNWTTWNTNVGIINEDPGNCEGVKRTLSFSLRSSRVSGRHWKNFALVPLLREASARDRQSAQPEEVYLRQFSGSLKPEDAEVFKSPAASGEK

molecular target: Transient receptor potential cation channel subfamily V member 1 (Homo sapiens) (UniProt Q8NER1); assay: HTS Assay for Compounds that Act as Agonists of the Vanilloid Receptor 1; conditions: TRPV1-expressing cells, Fluo-8 calcium influx, agonist mode; at 8.33 µM, stronger effect = higher value; further: 0% is about no effect
Excerpt: The transient receptor potential ion channel, family V, number 1, (TRPV1) is one of the most important molecular transducers of painful stimuli and a potential target for analgesic drug development. Although recent clinical trials with orthosteric antagonists have not produced a successful drug because of a hyperthermia side effect and their tendency to block thermal noxious pain, this ion channel is undeniably well placed in the pain pathway, and the idea of blocking pain signals before they enter the CNS is an excellent concept and of proven efficacy when TRPV1 agonists are used. We propose a new approach involving allosteric modulation to impose an activity-dependent constraint within the context of inflammation and tissue damage that would alter the responsiveness of the channel in a way that an orthosteric vanilloid antagonist cannot achieve. We believe that the allosteric modulator approach has not been explored for this target. The main goal of this proposal is to identify additional, new, potent allosteric modulators of TRPV1 that can be used to investigate TRPV1 function. Our recent report provides evidence of proof of concept, but the compounds are just at the edge of utility in terms of potency. […] The question of whether they can be used as analgesic agents is complex, but if suitable compounds are identified then testing for analgesic properties will be conducted. NIH Chemical Genomics Center [NCGC] NIH Molecular Libraries Probe Centers Network [MLPCN] MLPCN Grant: MH089480-1A1 Assay Submitter (PI): Michael Iadarola, National Institute of Dental and Cranofacial Research
Upon TRPV1 activation in TRPV1 cells, the channel opens and extracellular cations flow through the channel into the cytosol. A calcium binding dye (Fluo-8) becomes fluorescent when bound to calcium. This dye is pre-loaded into cells and is used as a marker for calcium influx. The amount of accumulated calcium is precisely quantified using the FDSS kinetic reader and the calcium dye. For the HTS assay, freshly prepared cells are plated at a density of 2000/well in 3 ul medium in 1536-well plates and cultured overnight at 35.5C. Cells will be loaded with 1 ul of the homogeneous calcium dye (ABD Bioquest) at room temperature for 40 to 90 minutes. Plates will be loaded into the FDSS kinetic reader and a 1 sec / cycle for 10 second baseline signal will be measured. Compound library will then be added with a pintool at 23 nl and measured kinetically for 3 minutes. This portion of the read is considered the agonist portion of the screen. Following the 3 minutes of incubation, an on board pipettor will deliver 1 ul of capsaicin for a final concentration equal to the EC20. Signal will be measured kinetically for an additional 2 minutes. This portion of the read is considered the allosteric enhancer portion of the screen. The FDSS reader has a standard filter set capable of measuring calcium bound Fluo-8 (ex=480 and em=520 nm).

Compound	activation
CCc1cccc(NC(=O)CCCN2C(=O)NC(C)(C)C2=O)c1	inactive: 5.56%
CC1(C)CC2CC(C)(CN2C(=O)COC(=O)c2cccc(O)c2)C1 (stereo unspecified)	inconclusive: 45.2%
COC(=O)Cc1ccc(NC(=S)NCCSc2ccc(C)cc2)cc1	inconclusive: 53.8%
O=C(NCC1(c2ccccc2)CCCC1)c1ccc(Br)o1	inconclusive: 46.8%
CCC(=O)Nc1ccc(-c2nn3c(C)nnc3s2)cc1C	inactive: 0.664%
CCOC(=O)c1c(C)oc2c1c(C(c1cccnc1)N1CCN(C)CC1)c(O)c1ccccc12 (stereo unspecified)	inconclusive: 58.8%
Cc1cccc(N2CCN(c3nc(C)cc(C)c3C#N)CC2C)c1 (stereo unspecified)	inconclusive: 35.2%
CC1CCN(C(=O)/C(=C/c2ccccc2Cl)c2ccccc2)CC1	inconclusive: 30.4%
O=C(c1ccc2[nH]c3c(c2c1)CCCC3)N1CCN(c2ccc(F)cc2)CC1	inconclusive: 55.8%
CC(C)CC(c1nnnn1C(C)C)N1CCN(C(=O)c2ccco2)CC1 (stereo unspecified)	inactive: -2.2%
CCN(Cc1ccccc1)C(=O)CC(=O)N(CC)Cc1ccccc1	inactive: -0.303%
CCCn1c(CNC(=O)Cc2ccccc2)nc2ccccc21	inconclusive: 35.2%
CCSc1nsc(NC(=O)Nc2ccccc2OC)n1	inconclusive: 30.7%
O=C(NCc1ccccn1)NC12CC3CC(CC(C3)C1)C2	inactive: -16.4%
Cc1ccc(NC(=O)C2CCCCC2)c(O)c1	inconclusive: 45.1%
O=C(NC1CCc2ccccc21)c1cc(COc2cncc(Cl)c2)on1 (stereo unspecified)	inconclusive: 35%
Cc1ccccc1C(=O)Nc1ccccc1N1CCN(C(=O)c2ccccc2)CC1	inconclusive: 77.3%
CCc1ccc(NC2=CC(=O)CC(c3ccco3)C2)cc1 (stereo unspecified)	inconclusive: 62.1%
Cc1cccc(NC(=O)c2ccc3nsnc3c2)c1C	inconclusive: 41.9%
CCn1c(=O)n(CC)c2cc(N3CCCC3)c(NC(=O)c3ccccc3OC)cc21	inconclusive: 52.6%
O=C(Nc1ccccc1)c1ccc2c(c1)OCCO2	inconclusive: 39.4%
Cc1ccnc(NC(=O)CNC(=O)C23CC4CC(CC(C4)C2)C3)c1	inactive: 6.99%
CCOC(=O)C1CCCN(S(=O)(=O)c2cc(OCC(=O)NC3CCCCC3)c(C)cc2Cl)C1 (stereo unspecified)	inconclusive: 45.2%
Cc1ccc(S(=O)(=O)NCCC(c2ccccc2)c2ccccc2)cc1C(=O)O	inactive: -2.84%
O=C(Nc1ccccc1)N1CCN2C(=O)c3ccccc3C12c1ccccc1 (stereo unspecified)	inconclusive: 72.6%
O=c1[nH]c2ccccc2nc1CCc1ccccc1	inactive: 11.3%

Two neighbouring records out of the list so far, quoted:
Compound	activation
CCC(=O)Nc1ccc(-c2nn3c(C)nnc3s2)cc1C	inactive: 0.664%
CCOC(=O)c1c(C)oc2c1c(C(c1cccnc1)N1CCN(C)CC1)c(O)c1ccccc12 (stereo unspecified)	inconclusive: 58.8%
